# According to the RNAGym collection of RNA variant scans (doi:10.1126/science.aae0568):
# This sample is rich in variants without activity.
# B1: tRNA (parent)
# chain: GUUCCGUUGGCGUAAUGGUAACGCGUCUCCCUCCUAAGGAGAAGACUGCGGGUUCGAGUCCCGUACGGAACG
# Variants of: B1
# Experiment: yeast fitness relative to wild type (ratio to wild type); higher = fitter; tRNA-Arg(CCU), competitive growth, 37 C, YPD
# Outline: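 Start and end populations of a pooled competition were compared by 100-nucleotide paired-end sequencing of gene amplicons. The Saccharomyces cerevisiae strains carried tRNA-Arg(CCU) gene variants at the native genomic locus, synthesised with a 3% per-site mutation rate at 69 sites, and competed in YPD at 37°C for 24 hours in six parallel replicates. Darwinian fitness relative to wild type was based on the change in genotype frequencies. Genotypes required ≥ 100 starting reads, and estimates < 0.5 were set to 0.5.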
row,Variant,yeast fitness
1,U2C U13C C61G,≤ 0.5
2,U7C A40U A42U U54A C61A,≤ 0.5
3,G6A C24G C30A U47C,≤ 0.5
4,G12A A20G U28A C55A G56A A65G,≤ 0.5
5,A20C C24U C34G G58A,≤ 0.5
6,U13A G23A A37U C49A G52A,≤ 0.5
7,C4G U19C C62U G63A,0.545
8,U3A U19A C46A G56A,0.564
9,A21C C34U A40U,≤ 0.5
10,A14G U19A C55U,≤ 0.5
11,C5G U26G C62U,≤ 0.5
12,G48A U53C C60A C61U,≤ 0.5
13,A21U U28A C34G,≤ 0.5
14,C4G C5U C55U,0.544
15,U7G A15G,0.913
16,A14G C31G A37U G44A A65U,≤ 0.5
17,A20G G41C A70U,0.622
18,C24G C31A A43C G44A U59A,≤ 0.5
19,C5A U53G C60A,≤ 0.5
20,A15C A45C A65G,≤ 0.5
21,G12C A40G G58C C61G A65C,≤ 0.5
22,G9A C33U C34G,≤ 0.5
23,G6A C11U C55A C62G A65U,≤ 0.5
24,A14C C29G,≤ 0.5

row,Variant,yeast fitness
1,G25C C34G A57G,≤ 0.5
2,U3G G9U G18A A20G A69U,≤ 0.5
3,C27A C60U A65C,≤ 0.5
4,U13G U26C C49G,≤ 0.5
5,A43C C46U C62U G63C C66U,≤ 0.5
6,A15U U32A C62U G63C,≤ 0.5
7,U2C C29A C31A A40U U47A C49U,≤ 0.5
8,U16G G25C C33A,≤ 0.5
9,C30G A45C G48A,≤ 0.5
10,U2G U13A G17C U26A C46G A57G,≤ 0.5
11,C24U U59A A69C,≤ 0.5
12,U8C G17A,0.711
13,U13A G17A C22U C30U G38C C49A,≤ 0.5
14,A20C G25C A40C A43C C55A C61G C66G,≤ 0.5
15,A42U G63A A65G,0.572
16,A21U U35A G56U C61G,≤ 0.5
17,U7G C27A G51C,≤ 0.5
18,G6C A15C G63C,≤ 0.5
19,G18C C27U U53G C66U,≤ 0.5
20,U7G G12A U13A,0.565
21,C5A G17A C46A C55G,≤ 0.5
22,G17C A57U G67C,≤ 0.5
23,C4A A15C C24G A45G,≤ 0.5
24,G39A A45C A65U C66U,≤ 0.5

row,Variant,yeast fitness
1,C30A C34G G52A C60A U64A,≤ 0.5
2,G17A C22A U47C U54C C55G C61A,≤ 0.5
3,U35C C55A C61U A69U,≤ 0.5
4,U28A C31A A42C A45U G51A A65U,≤ 0.5
5,C24U A65C,0.739
6,U8A G51C G58A,≤ 0.5
7,U7A C27U A69C,0.649
8,U8A A40U A70U,≤ 0.5
9,U2C G10C G12C C33U U35G,≤ 0.5
10,U7C A21U A36U A37C C49U,≤ 0.5
11,U3A A21G C55G A70G,≤ 0.5
12,A21C A45G U47C G68C,≤ 0.5
13,U3G A14C A42U G44C C66U,≤ 0.5
14,C61U G63C,0.565
15,C11A A20U U28G G51A C62U,≤ 0.5
16,U2C A20C C27A A36G A43G,≤ 0.5
17,A21G C22U C46A A69U,≤ 0.5
18,C4G U32G C55U C66G,≤ 0.5
19,G6A C24U C29A C61G C66U A69U,≤ 0.5
20,C5U A45U G51C,≤ 0.5
21,G6C C11A A20G G48C,≤ 0.5
22,A21U U28G C55G A65C,≤ 0.5
23,A15C U47A A65C,0.561
24,G17A C31U C49G C61A,≤ 0.5

row,Variant,yeast fitness
1,U8C C46U G51C A69U,≤ 0.5
2,A45U U59C,0.897
3,C22G C27G C31G C61G A69U,0.62
4,C33U A43C,0.656
5,A57C C61A A70G,≤ 0.5
6,G9A C29U C33U U59A A70C,≤ 0.5
7,U16A C61G C62G G68C,≤ 0.5
8,C22U C49G,0.87
9,C11G G50U A65U,≤ 0.5
10,A43U U54A,0.683
11,G12C C33G C46A C61A,≤ 0.5
12,U32C A40U G56C A65C,≤ 0.5
13,U2C C46U U59C,0.705
14,C5A A21C U54C,≤ 0.5
15,U35C C60U G68U,≤ 0.5
16,G6C G9C U26C A43C C46U,≤ 0.5
17,A20G U35G G67C,≤ 0.5
18,U2C G6A A42C C66U,≤ 0.5
19,G12C A37G G38A A45U C66U,≤ 0.5
20,U13A A40G U47G G63C,0.535
21,C24U C55G C61G G68A,≤ 0.5
22,C31U C60U G67A A69U,≤ 0.5
23,C4U C27A A37U G50A,≤ 0.5
24,U2A U3A G51A,≤ 0.5

row,Variant,yeast fitness
1,C4U A15C G23C A65G,≤ 0.5
2,G6C U13G C22A C34G,≤ 0.5
3,C4U A14G A15G C33A U59C C60U,≤ 0.5
4,C49G U53C,0.723
5,A37G A65G,0.695
6,C5U A37U A42U A69U,≤ 0.5
7,U3C A14G C22A C27G G39C C62G,≤ 0.5
8,G25A A42U A57G,≤ 0.5
9,A15U G18A C33G A42C,≤ 0.5
10,C5U G25C C34G U54C A69C,≤ 0.5
11,U28A C31A A42C A45U G48A G51A U64A,≤ 0.5
12,C5U U47C,0.96
13,G18C C30U U32A C34G A45C U47G A57G,0.688
14,U2C U19C A36U A37G C66G,≤ 0.5
15,G12A A42G C61G C62U,≤ 0.5
16,A14G C55A A69C,≤ 0.5
17,C29G C46G G48C,0.533
18,U3A G52A,0.764
19,G6A G44C G68A,≤ 0.5
20,U13C A42C A65U,≤ 0.5
21,G17A C31G C60U G68A,≤ 0.5
22,A15U C24G G67C,≤ 0.5
23,G9U C31G G44C G67C,≤ 0.5
24,C27G A42C A57C A65C,≤ 0.5

row,Variant,yeast fitness
1,C22U U28C U54A A69U,≤ 0.5
2,U7G G48A C62U,0.628
3,A14U A15U C27A C29G G44C C66A A70U,≤ 0.5
4,U3G C11U U19C A20U A42C C49U G56C,≤ 0.5
5,C5U A21C C30G U35A G38C C60G C62A,≤ 0.5
6,C22G A36C U54C C55U C60A C62G A69U,≤ 0.5
7,A36C C60U C62U A65C,≤ 0.5
8,U13C C31U A70C,0.756
9,C33G C55A G58A,0.609
10,G10A U19A A45G C61G,≤ 0.5
11,G9A U13A,1.03
12,C5G G18A C27U C31A,≤ 0.5
13,A14U C30G A40G C62U G63A,≤ 0.5
14,C5G U28C,0.737
15,U13A C22A C61G A69U,≤ 0.5
16,G6C C11G A15C G25C U26A C27G C30G G38C,≤ 0.5
17,A20C A21G C46G A65G,≤ 0.5
18,G12A C24U A65C,≤ 0.5
19,G6A U26C G50C,≤ 0.5
20,G10C A14G C34G G67A,≤ 0.5
21,G18A G23C C30G A36U,≤ 0.5
22,C4G A15U G23C,≤ 0.5
23,U2G G9C A14C C27U U47C G58A,≤ 0.5
24,C11A C29G U32C,≤ 0.5

row,Variant,yeast fitness
1,A21C C27A C60G,≤ 0.5
2,C4U A15C C30G G52A A65C,≤ 0.5
3,C4U G6C G9C A37U A57G,≤ 0.5
4,C22U C27U C33G G44C A65U,0.574
5,G6A C30U A45U A57C,≤ 0.5
6,U2A C4G C5G A36G,≤ 0.5
7,G38C G67U,0.549
8,C5U C29U A42U C61U,≤ 0.5
9,U35A A37U C66U,≤ 0.5
10,C24G C30G C66U,≤ 0.5
11,U3A C5A,0.806
12,U7G A15C G39C C49G,≤ 0.5
13,A14G U19A C33U A36U C66U,≤ 0.5
14,G10C U47C,0.695
15,C22G C29G C31G C55G,≤ 0.5
16,C27U C46G G51A G52A,≤ 0.5
17,C11G G12A C24A C30G G44C C61G,≤ 0.5
18,G6A U7A C24G C60G G63C,≤ 0.5
19,C34U G51C,≤ 0.5
20,A43G U64G,0.64
21,U7C U19C U26C C34U G52A U59A G63C,≤ 0.5
22,G10C U26C C46U,≤ 0.5
23,U3C A21C C22U C31U C33U,≤ 0.5
